# Source: PubChem BioAssay AID504444 (National Center for Advancing Translational Sciences (NCATS), 2011)
# In all, about 360,000 compounds went through this assay and about 7,500 (2.1%) were called active. This list was built around the results that the source calls inconclusive (neither active nor inactive); the mix of calls is not that of the screen. Calls follow the shape of the dose curve; as a rule, active = well fitted inhibition curve with a large enough effect; inconclusive = small, poorly fitted or top-dose-only effect, or effect the other way; inactive = flat fitted curve, though single readings scatter. Potencies beside an inconclusive call are fits to weak or partial responses and may not hold up.
# Assay: Nrf2 qHTS screen for inhibitors; also: nearly all actives have a fitted effect of over 60% in size
# Conditions: A549 ARE-Fluc reporter, luciferase luminescence, 18-24 h; activity change, negative = inhibition: at 46 µM (top of the series)
# Procedure, shortened: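 A549 ARE_Fluc cells, 5000/well, 5% FBS OPTI-MEM; compounds in dose-response, 18-24 h at 37 °C/5% CO2; CellTiter-Fluor viability read (Ex 405/Em 525), then BugLite luciferase luminescence = Nrf2 activity.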
# % is scaled to controls: 0 for no effect and ±100 for the full control effect; potency is read from the fitted curve at half-maximal effect.
SMILES,Potency,"activity change, negative = inhibition"
CN(C)c1ccc(NC(=O)Nc2ccc3c(c2)nnn3C)cc1,"inconclusive: 23.1 µM [activator, single point]",–
CCn1c(C(=O)N2CCC(C(=O)N3CCN(c4cccc(C)c4C)CC3)CC2)cc2sccc21,active: 20.6 µM,–
Cc1ccc(NC(=S)NC2CCSc3ccccc32)cc1C (configuration not stated),active: 23.1 µM,–
CCOC(=O)c1ccc(NC(=O)C2CCN(C(=O)c3ccc(OC)c(OC)c3)CC2)cc1,active: 23.1 µM,–
COc1ccc(NC(=O)CNC(=O)CC23CC4CC(CC(C4)C2)C3)c(OC)c1,"inconclusive: 25.9 µM [falling, single point]",–
COc1ccc(NC(=O)c2cc(S(=O)(=O)N3CCCC3)ccc2C)cn1,"inconclusive: 29.1 µM [falling, single point]",–
Cc1ccc(OC(C)c2nnc(N)s2)cc1Cl (configuration not stated),active: 16.4 µM,–
CCOc1cc(CNc2ccc(N(C)C)cc2)cc(Br)c1OCC(=O)NC(C)(C)C,"inconclusive: 0.326 µM [falling, full curve, poor fit]",–
COc1ccc(-c2c(-c3cc(OC)cc(OC)c3)n(C)c3ccc(-c4cnc(N)nc4)cc23)cc1,"inconclusive: 5.8 µM [falling, full curve]",–
CCn1c(SCc2nc3ccccc3s2)nnc1-c1ccccc1,"inconclusive: 11.6 µM [activator, partial curve]",–
COc1ccc(Cn2c(C3CC3)nc3ccc(NC(C)=O)cc3c2=O)cc1,"inconclusive: 29.1 µM [activator, partial curve, poor fit]",–
CC(=O)N1N=C(c2ccc3ccccc3c2)OC12CCCC2,"inconclusive: 29.1 µM [falling, single point]",–
COc1ccc(C2Nc3ccc(NC(=O)CO)cc3C(=O)N2Cc2cccc(Cl)c2)cc1COc1ccc(NC(C)=O)cc1 (configuration not stated),"inconclusive: 32.6 µM [falling, single point]",–
CCOP(=O)(OCC)c1nc(-c2ccc(F)cc2)oc1NCc1ccccc1,–,inactive: -6.6%
O=C(NCc1ccco1)C(c1ccc(F)cc1)N(C(=O)Cc1cccs1)c1cccnc1 (configuration not stated),"inconclusive: 16.4 µM [activator, partial curve, poor fit]",–
N#Cc1c(NC(=S)NC(=O)c2ccccc2)sc2c1CCCC2,–,inactive: 18%
CCOc1ccc(CCNC(=O)CCS(=O)(=O)c2ccc(OC)cc2)cc1OCC,"inconclusive: 2.59 µM [activator, partial curve, poor fit]",–
Cc1cc(N2CCN(c3ccccc3Cl)CC2)n2cc(-c3ccccc3)nc2n1,"inconclusive: 29.1 µM [falling, single point]",–
O=C(Cn1c(-c2cscn2)nc2ccccc21)Nc1ccc2ccccc2c1,"inconclusive: 29.1 µM [falling, single point]",–
CN(CC(=O)Nc1ccccc1Br)C(=O)c1ccc(-c2ccc(Cl)cc2)o1,"inconclusive: 29.1 µM [falling, single point]",–
Cc1cccc(C)c1NC(=O)Cn1nnc(-c2ccc(N3CCOCC3)cc2)n1,"inconclusive: 29.1 µM [falling, single point]",–
COc1ccc(Cl)cc1NC(=O)NCC1CCN(C(=O)OC(C)(C)C)CC1,"inconclusive: 29.1 µM [falling, single point]",–
NC(=O)C1CCN(C(=O)COc2ccc3c(c2)oc(=O)c2ccccc23)CC1,–,inactive: -12.1%

# Record cards, as listed above. Values in the order: Potency | activity change, negative = inhibition
# NC(=O)C1CCN(C(=O)COc2ccc3c(c2)oc(=O)c2ccccc23)CC1 in the list: – | inactive: -12.1%
# COc1ccc(Cl)cc1NC(=O)NCC1CCN(C(=O)OC(C)(C)C)CC1 in the list: inconclusive: 29.1 µM [falling, single point] | –

# 3 compounds picked at random from the list so far, as already listed:
SMILES,Potency,"activity change, negative = inhibition"
CCn1c(SCc2nc3ccccc3s2)nnc1-c1ccccc1,"inconclusive: 11.6 µM [activator, partial curve]",–
Cc1ccc(OC(C)c2nnc(N)s2)cc1Cl (configuration not stated),active: 16.4 µM,–
CN(C)c1ccc(NC(=O)Nc2ccc3c(c2)nnn3C)cc1,"inconclusive: 23.1 µM [activator, single point]",–

# Additional records follow.

SMILES,Potency,"activity change, negative = inhibition"
O=C(Nc1ccc(F)c(Cl)c1)N1CCN(C(=O)c2nsc3ccccc23)CC1,"inconclusive: 25.9 µM [falling, single point]",–
CC(C)(C)c1ccc(C(=O)Nc2ccc(CN3CCS(=O)(=O)CC3)cc2)cc1,active: 7.31 µM,–
c1ccc(CNc2nc3ccccc3c3nc(-c4ccccc4)nn23)cc1,–,inactive: -18.7%
CC(C)CN(C(=O)c1ccc(-n2cncn2)c([N+](=O)[O-])c1)C1CCS(=O)(=O)C1 (configuration not stated),–,inactive: 11.8%
CCS(=O)(=O)c1ccc(C(=O)Nc2ccccc2)c(Cl)c1Cl,"inconclusive: 20.6 µM [falling, single point]",–
O=C1CN(C(=O)c2cc(Br)c(Br)s2)c2ccccc2N1,"inconclusive: 8.2 µM [falling, partial curve, poor fit]",–
COc1cccc(CNC(=O)CSc2ccc(-c3sc(-c4ccccc4)nc3C)nn2)c1,"inconclusive: 32.6 µM [falling, single point]",–
O=C(NNC(=O)c1ccccc1O)c1ccc(S(=O)(=O)Nc2ccccc2)cc1,–,inactive: -23.3%
Cc1cccc(-c2noc(CCCC(=O)NC3CCCCC3)n2)c1,"inconclusive: 29.1 µM [falling, single point]",–
COc1ccc(Cl)cc1NC(=O)N1CCC(CN2CCc3ccccc3C2)CC1,–,inactive: -26.1%
CSc1ccc(CN(C)C(=O)c2ccc(S(=O)(=O)Nc3ccccc3)cc2)cc1,"inconclusive: 18.4 µM [falling, single point]",–
O=C(CSc1ccc(S(=O)(=O)N2CCCCC2)cn1)Nc1ccccc1Br,"inconclusive: 29.1 µM [falling, single point]",–
COc1ccc(NC(=O)C2CCN(c3ncnc4c3nc3n4CCCCC3)CC2)c(OC)c1,"inconclusive: 18.4 µM [falling, single point]",–
O=C(CCC(=O)N1CCN(c2cccc(Cl)c2)CC1)N1CCN(c2ccccc2)CC1,"inconclusive: 16.4 µM [falling, single point]",–
CC1(C)Cc2c(C#N)c(SCC(=O)c3ccccc3)nc(N3CCOCC3)c2CS1,active: 16.4 µM,–
COc1cc([C@H](Cc2ccccc2)NC(C)=O)oc(=O)c1,"inconclusive: 20.6 µM [falling, single point]",–
N#Cc1c(N)[nH]c2ccc(Sc3ccccc3)cc12,"inconclusive: 29.1 µM [activator, single point]",–
N#Cc1c(NC(=O)c2ccncc2)sc2c1CCC2,"inconclusive: 1.46 µM [activator, full curve]",–
CC1CCC(NC(=O)Cn2cc3c(n2)CCCC3)CC1 (configuration not stated),"inconclusive: 4.61 µM [activator, partial curve]",–
O=C(Nc1cccc(Cl)c1)Nc1ccccc1C(=O)O,"inconclusive: 29.1 µM [activator, single point]",–
COc1ccc(COc2cc(-c3cccc(OC)c3)nc3ccc(NC(=O)c4cccnc4)cc23)cc1,"inconclusive: 16.4 µM [falling, single point]",–
CCOc1ccc(/C=C(\C(=O)O)c2ccc(S(=O)(=O)N3CCCCC3)s2)cc1OC,"inconclusive: 18.4 µM [falling, partial curve, poor fit]",–
CC1=CC(c2ccc(Cl)cc2)n2nc(N3C(=O)CCC3=O)nc2N1 (configuration not stated),–,inactive: 1.98%

SMILES,Potency,"activity change, negative = inhibition"
O=c1c2cc3c(cc2nc2sc(Nc4ccc(F)cc4F)nn12)OCO3,–,inactive: 7.69% [at 9.27 µM]
O=C(C1CCCN(S(=O)(=O)c2cccs2)C1)N1CCN(c2cccc(Cl)c2)CC1 (configuration not stated),"inconclusive: 29.1 µM [falling, single point]",–
CCNc1nc(-c2ccc(OC(F)F)cc2)c(C)s1,"inconclusive: 16.4 µM [activator, partial curve]",–
O=C(COc1ccccc1)N1c2ccccc2Sc2ccccc21,"inconclusive: 18.4 µM [falling, single point]",–
COc1ccc(C)cc1-n1c(SCC(=O)NC2CC2)nc2ccccc2c1=O,"inconclusive: 32.6 µM [falling, partial curve, poor fit]",–
Cc1ccc(S(=O)(=O)c2nc(-c3ccccc3Cl)oc2N(C)C)cc1,–,inactive: -3.77%
Cc1ccnc(Nc2nc(-c3ccccc3)cs2)c1,"inconclusive: 2.59 µM [activator, full curve, poor fit]",–
COc1ccc(OCCn2c(C3CC(=O)N(c4ccc(F)cc4)C3)nc3ccccc32)cc1 (configuration not stated),"inconclusive: 29.1 µM [falling, single point]",–
COc1ccc(NC(=O)c2cccc(Oc3ccc([N+](=O)[O-])cc3Cl)c2)cc1,"inconclusive: 16.4 µM [falling, single point]",–
CCOC(=O)c1cn(CC)c2c(ccc3ccccc32)c1=O,"inconclusive: 18.4 µM [activator, single point]",–
COc1ccc(C(=O)Nc2ccc3ccccc3c2)cc1OC,–,inactive: 1.99%
Cc1ccc(CNC(=O)Cn2ncc3c(C)n(Cc4ccc(Cl)cc4)c(C)c3c2=O)cc1,"inconclusive: 29.1 µM [falling, single point]",–
CCCCOC(=O)c1ccc(NS(=O)(=O)c2c(C)nc3scc(C)n3c2=O)cc1,active: 16.4 µM,–
COc1cc(C=O)ccc1OCCOCCOc1ccccc1Cl,–,inactive: 1.31%
O=C(COc1ccc(F)cc1Cl)Nc1ccccc1C(=O)N1CCCCC1,"inconclusive: 20.6 µM [activator, partial curve, poor fit]",–
CCC1(CC)NC(=O)N(CC(=O)OCC(=O)Nc2cc(C)ccc2C)C1=O,"inconclusive: 13 µM [activator, partial curve, poor fit]",–
Cc1ccc(S(=O)(=O)N(C)C)cc1NC(=S)N1CCN(Cc2ccc3c(c2)OCO3)CC1,"inconclusive: 14.6 µM [falling, partial curve]",–
CCS(=O)(=O)Nc1ccc(-c2ccc(NS(=O)(=O)CC)c(OC)c2)cc1OC,"inconclusive: 18.4 µM [falling, single point]",–
Cc1onc(-c2c(F)cccc2Cl)c1C(=O)OCC(=O)NC(=O)NCC(C)C,"inconclusive: 23.1 µM [falling, single point]",–
COc1ccc(C2Nc3ccccc3C(=O)N2Cc2ccccc2)cc1COc1ccccc1F (configuration not stated),–,inactive: 5.62%
Cc1ccc(NC(=O)c2ccc(NC(=O)N3CCSc4ncccc43)cc2)cc1Cl,"inconclusive: 18.4 µM [falling, partial curve, poor fit]",–
